Test results published in the supplement of paper PMC12067093, “Discovery and optimisation of a covalent ligand for TRIM25 and its application to targeted protein ubiquitination” (Chemical Science, 2025).
This is one part of the list.
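Note: competitive chemoproteomic profiling in live THP-1 cells with an iodoacetamide desthiobiotin (IA-DTB) probe, comparing probe-labelled peptide intensities in compound-treated cells against DMSO-treated controls.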

Chains of the proteins cited; added tags and fusions are not shown. Lines headed by an entry give the natural chain unless they say otherwise; changes in a name come on top.
UniProt P42765: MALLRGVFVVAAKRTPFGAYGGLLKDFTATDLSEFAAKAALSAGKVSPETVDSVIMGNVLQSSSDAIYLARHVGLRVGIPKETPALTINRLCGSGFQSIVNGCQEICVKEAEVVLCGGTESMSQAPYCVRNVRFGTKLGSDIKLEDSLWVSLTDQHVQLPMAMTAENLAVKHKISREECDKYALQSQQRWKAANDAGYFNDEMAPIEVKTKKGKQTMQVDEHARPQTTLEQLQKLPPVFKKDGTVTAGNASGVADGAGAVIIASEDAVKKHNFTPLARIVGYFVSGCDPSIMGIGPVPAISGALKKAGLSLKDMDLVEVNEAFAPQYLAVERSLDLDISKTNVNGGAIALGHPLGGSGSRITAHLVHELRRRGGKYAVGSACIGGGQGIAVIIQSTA
UniProt Q6UXT9: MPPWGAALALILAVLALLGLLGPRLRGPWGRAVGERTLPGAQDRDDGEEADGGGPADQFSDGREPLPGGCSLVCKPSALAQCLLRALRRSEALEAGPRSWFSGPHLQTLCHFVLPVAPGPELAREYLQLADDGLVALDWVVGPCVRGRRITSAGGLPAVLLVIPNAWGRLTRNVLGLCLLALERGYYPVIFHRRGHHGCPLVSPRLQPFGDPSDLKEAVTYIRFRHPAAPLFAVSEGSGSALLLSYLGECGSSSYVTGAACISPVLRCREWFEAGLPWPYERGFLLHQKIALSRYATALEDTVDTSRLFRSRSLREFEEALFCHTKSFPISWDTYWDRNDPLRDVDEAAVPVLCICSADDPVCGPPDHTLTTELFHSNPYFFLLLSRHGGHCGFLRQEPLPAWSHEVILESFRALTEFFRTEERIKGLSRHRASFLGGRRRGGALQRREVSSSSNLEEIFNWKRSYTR
UniProt Q2M2I8: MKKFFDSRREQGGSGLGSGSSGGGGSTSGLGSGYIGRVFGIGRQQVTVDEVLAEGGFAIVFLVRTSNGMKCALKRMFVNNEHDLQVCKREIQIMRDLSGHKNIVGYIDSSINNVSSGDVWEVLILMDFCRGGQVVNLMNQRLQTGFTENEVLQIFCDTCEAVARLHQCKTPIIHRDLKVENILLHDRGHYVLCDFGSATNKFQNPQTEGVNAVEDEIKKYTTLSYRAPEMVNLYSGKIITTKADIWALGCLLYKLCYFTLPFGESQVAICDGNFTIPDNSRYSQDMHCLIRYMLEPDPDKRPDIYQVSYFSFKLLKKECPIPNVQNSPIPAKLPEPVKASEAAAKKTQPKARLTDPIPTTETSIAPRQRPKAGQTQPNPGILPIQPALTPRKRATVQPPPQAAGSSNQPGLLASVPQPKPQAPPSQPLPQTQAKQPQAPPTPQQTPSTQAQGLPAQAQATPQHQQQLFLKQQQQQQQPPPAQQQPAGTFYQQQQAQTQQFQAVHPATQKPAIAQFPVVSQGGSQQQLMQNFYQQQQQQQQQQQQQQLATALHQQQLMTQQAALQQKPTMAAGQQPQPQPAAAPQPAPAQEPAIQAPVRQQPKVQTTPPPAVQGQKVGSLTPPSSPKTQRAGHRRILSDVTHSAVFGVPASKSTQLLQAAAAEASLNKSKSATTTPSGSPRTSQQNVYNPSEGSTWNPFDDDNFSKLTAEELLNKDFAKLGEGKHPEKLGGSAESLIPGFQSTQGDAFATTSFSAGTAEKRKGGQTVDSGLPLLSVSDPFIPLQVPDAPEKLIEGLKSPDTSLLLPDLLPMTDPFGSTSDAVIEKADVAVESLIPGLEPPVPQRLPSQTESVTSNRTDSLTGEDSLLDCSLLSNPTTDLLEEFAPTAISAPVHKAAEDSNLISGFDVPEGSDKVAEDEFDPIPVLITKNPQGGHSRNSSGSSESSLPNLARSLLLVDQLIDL
UniProt Q9Y312: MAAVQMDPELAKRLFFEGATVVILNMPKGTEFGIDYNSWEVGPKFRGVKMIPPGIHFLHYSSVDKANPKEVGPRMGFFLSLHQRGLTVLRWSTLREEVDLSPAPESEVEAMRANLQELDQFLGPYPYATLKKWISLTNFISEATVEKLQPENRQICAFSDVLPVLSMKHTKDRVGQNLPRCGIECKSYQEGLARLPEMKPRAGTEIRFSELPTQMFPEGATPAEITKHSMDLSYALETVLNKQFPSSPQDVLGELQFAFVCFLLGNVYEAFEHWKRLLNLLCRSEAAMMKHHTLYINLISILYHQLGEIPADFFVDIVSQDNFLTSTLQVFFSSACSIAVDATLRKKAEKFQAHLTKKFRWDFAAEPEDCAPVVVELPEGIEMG
UniProt Q9H7C9: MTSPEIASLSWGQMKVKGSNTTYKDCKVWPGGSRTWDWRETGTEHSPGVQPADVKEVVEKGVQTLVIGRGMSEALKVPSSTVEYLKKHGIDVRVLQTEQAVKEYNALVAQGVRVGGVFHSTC
UniProt Q99798: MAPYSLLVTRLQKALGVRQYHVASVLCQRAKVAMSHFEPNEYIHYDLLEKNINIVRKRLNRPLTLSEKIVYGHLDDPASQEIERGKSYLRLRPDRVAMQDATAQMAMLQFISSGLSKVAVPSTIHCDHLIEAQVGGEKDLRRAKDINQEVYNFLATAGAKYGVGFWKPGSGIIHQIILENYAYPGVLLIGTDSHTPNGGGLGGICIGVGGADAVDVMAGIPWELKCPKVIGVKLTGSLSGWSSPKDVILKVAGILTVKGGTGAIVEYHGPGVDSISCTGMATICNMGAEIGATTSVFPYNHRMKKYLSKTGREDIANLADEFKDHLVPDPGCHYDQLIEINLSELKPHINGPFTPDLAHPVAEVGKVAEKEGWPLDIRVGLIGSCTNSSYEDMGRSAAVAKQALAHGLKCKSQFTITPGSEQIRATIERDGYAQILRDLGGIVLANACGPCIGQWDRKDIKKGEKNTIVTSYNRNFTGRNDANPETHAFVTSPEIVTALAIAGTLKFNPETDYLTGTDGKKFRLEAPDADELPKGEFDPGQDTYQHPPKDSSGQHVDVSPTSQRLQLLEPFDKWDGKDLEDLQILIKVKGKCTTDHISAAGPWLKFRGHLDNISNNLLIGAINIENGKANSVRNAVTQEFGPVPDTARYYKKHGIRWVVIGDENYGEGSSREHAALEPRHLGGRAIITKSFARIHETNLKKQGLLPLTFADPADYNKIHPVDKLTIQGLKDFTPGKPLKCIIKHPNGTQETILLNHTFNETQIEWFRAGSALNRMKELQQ
UniProt P49588, whole entry, looked up: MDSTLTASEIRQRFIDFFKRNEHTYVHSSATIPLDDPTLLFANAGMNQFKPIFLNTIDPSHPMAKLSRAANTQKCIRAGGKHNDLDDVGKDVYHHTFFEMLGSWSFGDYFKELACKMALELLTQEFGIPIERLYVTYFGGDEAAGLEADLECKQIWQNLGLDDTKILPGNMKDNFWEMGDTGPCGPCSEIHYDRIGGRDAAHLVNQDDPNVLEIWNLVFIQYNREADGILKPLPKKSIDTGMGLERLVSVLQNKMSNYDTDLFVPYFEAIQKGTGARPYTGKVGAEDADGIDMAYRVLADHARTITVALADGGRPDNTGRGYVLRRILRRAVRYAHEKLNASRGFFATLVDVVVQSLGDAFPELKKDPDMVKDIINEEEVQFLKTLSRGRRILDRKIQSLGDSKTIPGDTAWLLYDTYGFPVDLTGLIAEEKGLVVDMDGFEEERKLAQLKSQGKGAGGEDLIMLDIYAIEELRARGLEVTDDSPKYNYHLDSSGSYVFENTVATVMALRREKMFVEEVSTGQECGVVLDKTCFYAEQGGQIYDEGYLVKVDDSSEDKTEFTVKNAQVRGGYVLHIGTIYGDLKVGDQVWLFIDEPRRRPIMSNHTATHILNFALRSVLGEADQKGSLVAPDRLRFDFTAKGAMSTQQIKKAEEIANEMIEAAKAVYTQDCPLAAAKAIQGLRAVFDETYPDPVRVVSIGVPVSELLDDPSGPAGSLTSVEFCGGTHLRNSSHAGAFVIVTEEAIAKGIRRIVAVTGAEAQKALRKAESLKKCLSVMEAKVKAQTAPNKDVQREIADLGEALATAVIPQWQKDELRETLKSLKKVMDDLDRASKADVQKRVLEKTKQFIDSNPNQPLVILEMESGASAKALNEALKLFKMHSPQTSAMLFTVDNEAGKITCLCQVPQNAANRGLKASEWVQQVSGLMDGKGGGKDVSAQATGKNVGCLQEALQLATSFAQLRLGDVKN
UniProt Q15057: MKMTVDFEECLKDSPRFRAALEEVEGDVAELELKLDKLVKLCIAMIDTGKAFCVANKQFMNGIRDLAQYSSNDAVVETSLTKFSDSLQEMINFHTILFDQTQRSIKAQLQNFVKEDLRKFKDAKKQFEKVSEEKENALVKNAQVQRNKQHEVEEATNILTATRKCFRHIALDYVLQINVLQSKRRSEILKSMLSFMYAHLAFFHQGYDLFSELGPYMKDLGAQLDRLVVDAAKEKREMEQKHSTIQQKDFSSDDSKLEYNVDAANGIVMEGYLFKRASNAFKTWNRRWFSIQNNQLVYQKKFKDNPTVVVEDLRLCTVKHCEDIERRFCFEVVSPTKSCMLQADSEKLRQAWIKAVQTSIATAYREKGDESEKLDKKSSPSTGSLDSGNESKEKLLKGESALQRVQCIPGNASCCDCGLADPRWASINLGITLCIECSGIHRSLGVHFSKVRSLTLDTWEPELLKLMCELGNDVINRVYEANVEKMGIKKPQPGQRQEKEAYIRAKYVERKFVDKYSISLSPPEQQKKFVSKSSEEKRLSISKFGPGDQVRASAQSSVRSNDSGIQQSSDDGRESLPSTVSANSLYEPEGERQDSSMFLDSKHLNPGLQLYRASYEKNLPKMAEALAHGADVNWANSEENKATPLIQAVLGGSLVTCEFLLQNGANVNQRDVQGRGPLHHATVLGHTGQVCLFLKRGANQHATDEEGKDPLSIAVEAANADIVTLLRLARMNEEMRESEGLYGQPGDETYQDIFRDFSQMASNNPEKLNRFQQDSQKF
UniProt Q8NE71: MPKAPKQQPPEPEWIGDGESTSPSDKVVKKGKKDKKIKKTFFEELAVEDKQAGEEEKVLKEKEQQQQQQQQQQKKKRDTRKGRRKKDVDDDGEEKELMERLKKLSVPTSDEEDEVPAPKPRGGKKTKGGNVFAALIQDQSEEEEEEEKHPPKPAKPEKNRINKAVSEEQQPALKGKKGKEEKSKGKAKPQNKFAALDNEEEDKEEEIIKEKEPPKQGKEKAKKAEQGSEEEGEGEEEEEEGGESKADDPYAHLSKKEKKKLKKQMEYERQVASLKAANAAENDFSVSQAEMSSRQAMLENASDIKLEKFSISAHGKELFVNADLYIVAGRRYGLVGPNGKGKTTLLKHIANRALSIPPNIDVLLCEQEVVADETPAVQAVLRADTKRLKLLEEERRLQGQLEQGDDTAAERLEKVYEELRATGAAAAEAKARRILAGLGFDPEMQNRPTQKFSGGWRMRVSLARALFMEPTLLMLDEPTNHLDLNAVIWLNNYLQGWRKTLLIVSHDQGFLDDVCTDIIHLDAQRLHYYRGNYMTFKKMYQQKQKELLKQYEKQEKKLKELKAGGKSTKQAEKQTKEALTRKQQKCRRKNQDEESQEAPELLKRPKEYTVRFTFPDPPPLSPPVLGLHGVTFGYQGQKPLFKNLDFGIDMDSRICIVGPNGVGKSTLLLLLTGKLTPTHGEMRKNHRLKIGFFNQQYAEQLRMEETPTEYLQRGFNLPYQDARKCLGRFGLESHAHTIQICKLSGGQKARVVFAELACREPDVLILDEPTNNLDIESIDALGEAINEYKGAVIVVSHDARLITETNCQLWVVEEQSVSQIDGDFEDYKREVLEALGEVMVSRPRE
UniProt Q9NUJ1: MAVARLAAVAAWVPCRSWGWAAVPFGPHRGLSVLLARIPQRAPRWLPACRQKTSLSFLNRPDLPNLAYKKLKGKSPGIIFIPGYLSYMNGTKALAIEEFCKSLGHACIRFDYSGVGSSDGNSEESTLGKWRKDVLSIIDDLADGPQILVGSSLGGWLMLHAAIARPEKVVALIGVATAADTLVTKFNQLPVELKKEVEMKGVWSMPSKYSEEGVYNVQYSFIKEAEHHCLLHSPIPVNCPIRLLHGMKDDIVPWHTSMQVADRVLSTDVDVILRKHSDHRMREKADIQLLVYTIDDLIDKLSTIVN
UniProt Q13685: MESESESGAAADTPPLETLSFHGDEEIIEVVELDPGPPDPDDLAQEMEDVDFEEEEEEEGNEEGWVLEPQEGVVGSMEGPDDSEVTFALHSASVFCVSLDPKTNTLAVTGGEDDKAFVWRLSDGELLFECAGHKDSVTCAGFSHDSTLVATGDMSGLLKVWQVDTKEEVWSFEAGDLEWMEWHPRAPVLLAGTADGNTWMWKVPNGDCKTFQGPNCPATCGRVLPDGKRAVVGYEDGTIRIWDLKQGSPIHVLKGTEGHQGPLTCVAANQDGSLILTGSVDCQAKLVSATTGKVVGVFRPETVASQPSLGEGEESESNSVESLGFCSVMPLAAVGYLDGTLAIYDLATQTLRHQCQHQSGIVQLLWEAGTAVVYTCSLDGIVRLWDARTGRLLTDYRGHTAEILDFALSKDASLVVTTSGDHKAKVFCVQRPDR

These targets were tested with CC1Cc2ccccc2N1C(=O)C1CCCN(C1)C(=O)CCl (mixture of isomers) [TRIM25 ligand 11 (diastereomer mixture)] (assay: probe-labelled cysteine peptide fold change vs DMSO (competition) (log2 fold change); higher = less target engagement (more negative = stronger competition)). Settings: 10 µM; THP-1; incubation time: 4 h.
For “ACLY_P53396_1040_NCGSFTREEADEYIDIGALNGIFVLGR (UniProt P53396)”, the “probe-labelled cysteine peptide fold change” value was -0.191. With “ABCE1_P61221_38_LCIEVTPQSK (UniProt P61221)” the “probe-labelled cysteine peptide fold change” value was -0.0845. In the case of “AAAS_Q9NRG9_444_NSPVFELLPCGIIQGEPGAQPQLITFHPSFNK (UniProt Q9NRG9)”, the “probe-labelled cysteine peptide fold change” value was 0.193. In the case of “ABHD16A_O95870_416_QHLNLNNAEQLCR (UniProt O95870)”, the “probe-labelled cysteine peptide fold change” value was -0.104. With “AAAS_Q9NRG9_335_CQTGCWSPDGSR (UniProt Q9NRG9)” the “probe-labelled cysteine peptide fold change” value was 0.605. With “ABCF2_Q9UG63_186_LAHEDAECEK (UniProt Q9UG63)” the “probe-labelled cysteine peptide fold change” value was 0.0364. With “ACAA2_P42765_128_EAEVVLCGGTESMSQAPYCVR (UniProt P42765)” the “probe-labelled cysteine peptide fold change” value was -0.196. With “ABCC1_P33527_1479_TQFEDCTVLTIAHR (UniProt P33527)” the “probe-labelled cysteine peptide fold change” value was 0.0212. With “ABHD17B_Q5VST6_250_CQRPVEPLWVEGAGHNDVELYGQYLER (UniProt Q5VST6)” the “probe-labelled cysteine peptide fold change” value was 0.129. In the case of “ACACA_Q13085_1470_TDCNHIFLNFVPTVIMDPSK (UniProt Q13085)”, the “probe-labelled cysteine peptide fold change” value was 0.156. For “ABI1_Q8IZP0_488_NDDGWYEGVCNR (UniProt Q8IZP0)”, the “probe-labelled cysteine peptide fold change” value was 0.000739. In the case of “ABHD15_Q6UXT9_323_EFEEALFCHTK (UniProt Q6UXT9)”, the “probe-labelled cysteine peptide fold change” value was -0.057. With “AACS_Q86V21_15_EERPGREEILECQVMWEPDSKK (UniProt Q86V21)” the “probe-labelled cysteine peptide fold change” value was -0.073. “ABCB1_P08183_1074_KGQTLALVGSSGCGK (UniProt P08183)” was tested, and the “probe-labelled cysteine peptide fold change” value was -0.0574. With “ACLY_P53396_845_KPASFMTSICDER (UniProt P53396)” the “probe-labelled cysteine peptide fold change” value was 0.294. “AAK1_Q2M2I8_87_MFVNNEHDLQVCK (UniProt Q2M2I8)” was tested, and the “probe-labelled cysteine peptide fold change” value was -0.0313. For “ACAA2_P42765_116_EAEVVLCGGTESMSQAPYCVR (UniProt P42765)”, the “probe-labelled cysteine peptide fold change” value was 0.222. In the case of “AAR2_Q9Y312_156_QICAFSDVLPVLSMK (UniProt Q9Y312)”, the “probe-labelled cysteine peptide fold change” value was -0.212. With “ACO1_P21399_118_INPVCPADLVIDHSIQVDFNR (UniProt P21399)” the “probe-labelled cysteine peptide fold change” value was -0.039. With “AAMDC_Q9H7C9_122_VGGVFHSTC (UniProt Q9H7C9)” the “probe-labelled cysteine peptide fold change” value was -0.0421. For “ACOT2_P49753_300_GGELCLSMASFLK (UniProt P49753)”, the “probe-labelled cysteine peptide fold change” value was 0.0491. In the case of “ABCC4_O15439_1226_FAHCTVLTIAHR (UniProt O15439)”, the “probe-labelled cysteine peptide fold change” value was 0.195. With “ACO2_Q99798_126_VAVPSTIHCDHLIEAQVGGEK (UniProt Q99798)” the “probe-labelled cysteine peptide fold change” value was 0.0308. “ABHD12_Q8N2K0_52_CAADAGMK (UniProt Q8N2K0)” was tested, and the “probe-labelled cysteine peptide fold change” value was -0.081. In the case of “ABRAXAS2_Q15018_237_VVESCQAEVNK (UniProt Q15018)”, the “probe-labelled cysteine peptide fold change” value was 0.0911. In the case of “AARS_P49588_184_DNFWEMGDTGPCGPCSEIHYDR (UniProt P49588)”, the “probe-labelled cysteine peptide fold change” value was -0.0236. With “ACAP2_Q15057_53_AFCVANK (UniProt Q15057)” the “probe-labelled cysteine peptide fold change” value was 0.087. “AARS_P49588_901_ITCLCQVPQNAANR (UniProt P49588)” was tested, and the “probe-labelled cysteine peptide fold change” value was 0.023. For “ACAP2_Q15057_329_FCFEVVSPTK (UniProt Q15057)”, the “probe-labelled cysteine peptide fold change” value was 0.185. “ABCF1_Q8NE71_758_VVFAELACR (UniProt Q8NE71)” was tested, and the “probe-labelled cysteine peptide fold change” value was 0.244. For “ACACA_Q13085_1297_TDCDIEDDRLAAMFR (UniProt Q13085)”, the “probe-labelled cysteine peptide fold change” value was 0.0398. In the case of “ABHD10_Q9NUJ1_229+239_EAEHHCLLHSPIPVNCPIR (UniProt Q9NUJ1)”, the “probe-labelled cysteine peptide fold change” value was 0.161. “AAK1_Q2M2I8_250_ADIWALGCLLYK (UniProt Q2M2I8)” was tested, and the “probe-labelled cysteine peptide fold change” value was 0.00782. With “ACOT11_Q8WXI4_529_RGETLCSGFCLWR (UniProt Q8WXI4)” the “probe-labelled cysteine peptide fold change” value was 0.138. With “ABHD10_Q9NUJ1_107_SLGHACIR (UniProt Q9NUJ1)” the “probe-labelled cysteine peptide fold change” value was 0.193. With “AAAS_Q9NRG9_331_CQTGCWSPDGSR (UniProt Q9NRG9)” the “probe-labelled cysteine peptide fold change” value was -0.0735. In the case of “AAMP_Q13685_130_LSDGELLFECAGHK (UniProt Q13685)”, the “probe-labelled cysteine peptide fold change” value was 0.043. “ACLY_P53396_633_GVTIIGPATVGGIKPGCFK (UniProt P53396)” was tested, and the “probe-labelled cysteine peptide fold change” value was 0.0182.

Same assay, conditions: 50 µM; THP-1; incubation time: 4 h
In the case of “ACLY_P53396_1040_NCGSFTREEADEYIDIGALNGIFVLGR (UniProt P53396)”, the “probe-labelled cysteine peptide fold change” value was -0.0516. For “ABCE1_P61221_38_LCIEVTPQSK (UniProt P61221)”, the “probe-labelled cysteine peptide fold change” value was 0.0618. For “AAAS_Q9NRG9_444_NSPVFELLPCGIIQGEPGAQPQLITFHPSFNK (UniProt Q9NRG9)”, the “probe-labelled cysteine peptide fold change” value was 0.0961. In the case of “ABHD16A_O95870_416_QHLNLNNAEQLCR (UniProt O95870)”, the “probe-labelled cysteine peptide fold change” value was 0.141. With “AAAS_Q9NRG9_335_CQTGCWSPDGSR (UniProt Q9NRG9)” the “probe-labelled cysteine peptide fold change” value was -0.129. In the case of “ABCF2_Q9UG63_186_LAHEDAECEK (UniProt Q9UG63)”, the “probe-labelled cysteine peptide fold change” value was -0.158. In the case of “ACAA2_P42765_128_EAEVVLCGGTESMSQAPYCVR (UniProt P42765)”, the “probe-labelled cysteine peptide fold change” value was 0.031. With “ABCC1_P33527_1479_TQFEDCTVLTIAHR (UniProt P33527)” the “probe-labelled cysteine peptide fold change” value was -0.0597. In the case of “ABHD17B_Q5VST6_250_CQRPVEPLWVEGAGHNDVELYGQYLER (UniProt Q5VST6)”, the “probe-labelled cysteine peptide fold change” value was 0.259. In the case of “ACACA_Q13085_1470_TDCNHIFLNFVPTVIMDPSK (UniProt Q13085)”, the “probe-labelled cysteine peptide fold change” value was -0.0283. In the case of “ABI1_Q8IZP0_488_NDDGWYEGVCNR (UniProt Q8IZP0)”, the “probe-labelled cysteine peptide fold change” value was 0.0335. For “ABHD15_Q6UXT9_323_EFEEALFCHTK (UniProt Q6UXT9)”, the “probe-labelled cysteine peptide fold change” value was 0.0683. “AACS_Q86V21_15_EERPGREEILECQVMWEPDSKK (UniProt Q86V21)” was tested, and the “probe-labelled cysteine peptide fold change” value was -0.165. In the case of “ABCB1_P08183_1074_KGQTLALVGSSGCGK (UniProt P08183)”, the “probe-labelled cysteine peptide fold change” value was -0.0554. “ACLY_P53396_845_KPASFMTSICDER (UniProt P53396)” was tested, and the “probe-labelled cysteine peptide fold change” value was 0.0276. For “AAK1_Q2M2I8_87_MFVNNEHDLQVCK (UniProt Q2M2I8)”, the “probe-labelled cysteine peptide fold change” value was 0.00107. “ACAA2_P42765_116_EAEVVLCGGTESMSQAPYCVR (UniProt P42765)” was tested, and the “probe-labelled cysteine peptide fold change” value was -0.145. In the case of “AAR2_Q9Y312_156_QICAFSDVLPVLSMK (UniProt Q9Y312)”, the “probe-labelled cysteine peptide fold change” value was -0.0154. For “ACO1_P21399_118_INPVCPADLVIDHSIQVDFNR (UniProt P21399)”, the “probe-labelled cysteine peptide fold change” value was 0.0862. “AAMDC_Q9H7C9_122_VGGVFHSTC (UniProt Q9H7C9)” was tested, and the “probe-labelled cysteine peptide fold change” value was -0.0926. With “ACOT2_P49753_300_GGELCLSMASFLK (UniProt P49753)” the “probe-labelled cysteine peptide fold change” value was -0.0178. “ABCC4_O15439_1226_FAHCTVLTIAHR (UniProt O15439)” was tested, and the “probe-labelled cysteine peptide fold change” value was 0.217. “ACO2_Q99798_126_VAVPSTIHCDHLIEAQVGGEK (UniProt Q99798)” was tested, and the “probe-labelled cysteine peptide fold change” value was -0.109. “ABHD12_Q8N2K0_52_CAADAGMK (UniProt Q8N2K0)” was tested, and the “probe-labelled cysteine peptide fold change” value was -0.2. “ABRAXAS2_Q15018_237_VVESCQAEVNK (UniProt Q15018)” was tested, and the “probe-labelled cysteine peptide fold change” value was 0.0743. For “AARS_P49588_184_DNFWEMGDTGPCGPCSEIHYDR (UniProt P49588)”, the “probe-labelled cysteine peptide fold change” value was -0.152. “ACAP2_Q15057_53_AFCVANK (UniProt Q15057)” was tested, and the “probe-labelled cysteine peptide fold change” value was 0.0818. For “AARS_P49588_901_ITCLCQVPQNAANR (UniProt P49588)”, the “probe-labelled cysteine peptide fold change” value was 0.0741. With “ACAP2_Q15057_329_FCFEVVSPTK (UniProt Q15057)” the “probe-labelled cysteine peptide fold change” value was 0.153. “ABCF1_Q8NE71_758_VVFAELACR (UniProt Q8NE71)” was tested, and the “probe-labelled cysteine peptide fold change” value was 0.249. With “ACACA_Q13085_1297_TDCDIEDDRLAAMFR (UniProt Q13085)” the “probe-labelled cysteine peptide fold change” value was -0.09. For “ABHD10_Q9NUJ1_229+239_EAEHHCLLHSPIPVNCPIR (UniProt Q9NUJ1)”, the “probe-labelled cysteine peptide fold change” value was 0.0305. “AAK1_Q2M2I8_250_ADIWALGCLLYK (UniProt Q2M2I8)” was tested, and the “probe-labelled cysteine peptide fold change” value was 0.228. For “ACOT11_Q8WXI4_529_RGETLCSGFCLWR (UniProt Q8WXI4)”, the “probe-labelled cysteine peptide fold change” value was 0.256. For “ABHD10_Q9NUJ1_107_SLGHACIR (UniProt Q9NUJ1)”, the “probe-labelled cysteine peptide fold change” value was 0.0714. For “AAAS_Q9NRG9_331_CQTGCWSPDGSR (UniProt Q9NRG9)”, the “probe-labelled cysteine peptide fold change” value was 0.00241. For “AAMP_Q13685_130_LSDGELLFECAGHK (UniProt Q13685)”, the “probe-labelled cysteine peptide fold change” value was -0.0263. “ACLY_P53396_633_GVTIIGPATVGGIKPGCFK (UniProt P53396)” was tested, and the “probe-labelled cysteine peptide fold change” value was -0.0957.
